# Data source: PubChem BioAssay AID1259282 (Sanger Institute, 2017)
# Aim: 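Kinases whose loss reduces viability on their own or with anchor drugs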 (primary screen)
# System: DIFI human colorectal cancer cell line
# Reagent: siRNA pool against human genes
# Challenge: anchor drug at a mild dose (BYL719 1 µM, cetuximab 5 µg/ml, trametinib 10 nM) or DMSO vehicle; exposure time not given
# Detection: 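Robust z-score and replicate-mean viability versus non-targeting pool without drug, plus a synergy score for each low-dose anchor drug (BYL719, cetuximab, trametinib)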
# Reading the numbers: robust z-score, knock-down alone: higher = more viable cells than typical knock-down; viability, knock-down alone: higher = more viable cells; synergy score with trametinib and synergy score with cetuximab: higher = stronger combined killing with drug
# Hit rule: 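a knock-down is called essential if its DMSO robust z-score is under -3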
# Meaning of the calls: active = essential (knock-down alone, z below -3); inactive = not essential
# Shown is one part, drawn at random, of 794 reagents tested. Of all reagents, 11 (1.4%) were called active. 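Calls flag knock-downs that lower viability without drug; drug synergy appears only in the synergy scores; exposure time not stated.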 No viability above 1 is reported: the scale is capped. Further read-outs or replicates are left out here. Not given: the amount of reagent, the time to read-out.
gene,PubChem SID,"robust z-score, knock-down alone","viability, knock-down alone (fraction of control)",synergy score with trametinib,synergy score with cetuximab,call
GRK5 (G protein-coupled receptor kinase 5),SID152146923,0.38,0.951,0.243,0.0828,inactive
STK16 (serine/threonine kinase 16),SID152154415,0.715,1,0.186,-0.0284,inactive
ALPK1 (alpha kinase 1),SID152152286,0.715,1,0.0865,0.0363,inactive
AURKB (aurora kinase B),SID152151121,-0.913,0.764,0.101,-0.0851,inactive
SGK3 (serum/glucocorticoid regulated kinase family member 3),SID56478777,-0.288,0.854,-0.0198,-0.00943,inactive
CAMK4 (calcium/calmodulin dependent protein kinase IV),SID56478933,0.715,1,0.0396,0.0338,inactive
FLT1 (fms related receptor tyrosine kinase 1),SID152149290,0.715,1,-0.0203,-0.0959,inactive
IKBKE (inhibitor of nuclear factor kappa B kinase subunit epsilon),SID56478721,0.715,1,0.0872,-0.0354,inactive
IGF2R (insulin like growth factor 2 receptor),SID152150296,0.715,1,-0.0639,-0.115,inactive
NRBP1 (nuclear receptor binding protein 1),SID135620974,0.715,1,0.0314,-0.122,inactive
TRPM6,SID56478975,0.715,1,-0.251,-0.149,inactive
BMAL1 (basic helix-loop-helix ARNT like 1),SID134314841,-2.29,0.563,0.0712,-0.000396,inactive
MAP3K20 (mitogen-activated protein kinase kinase kinase 20),SID152152597,0.715,1,0.0263,-0.103,inactive
MAPK6 (mitogen-activated protein kinase 6),SID56478707,-1.18,0.725,0.0994,0.00413,inactive
TTK (TTK protein kinase),SID56478775,0.0423,0.902,-0.0703,-0.145,inactive
IPMK (inositol polyphosphate multikinase),SID152147042,0.715,1,-0.163,-0.0714,inactive
PTK2 (protein tyrosine kinase 2),SID56478542,-1.43,0.688,0.0838,0.0773,inactive
PRKCG (protein kinase C gamma),SID56478828,0.715,1,-0.053,0.0342,inactive
STK11 (serine/threonine kinase 11),SID152153881,-0.866,0.77,0.115,0.0256,inactive
PRPS1 (phosphoribosyl pyrophosphate synthetase 1),SID56479145,-1.04,0.746,-0.00391,0.0305,inactive
EEF2K (eukaryotic elongation factor 2 kinase),SID152154873,-0.586,0.811,0.0741,0.0495,inactive
MYLK2 (myosin light chain kinase 2),SID56479029,-3.27,0.421,0.00707,0.0185,active
ACVRL1 (activin A receptor like type 1),SID152155046,0.00759,0.897,-0.16,-0.0907,inactive
CDKL4 (cyclin dependent kinase like 4),SID135624323,-3.34,0.411,0.081,0.0713,active
"PIKFYVE (phosphoinositide kinase, FYVE-type zinc finger containing)",SID152154410,0.715,1,-0.0545,0.0167,inactive
DYRK4 (dual specificity tyrosine phosphorylation regulated kinase 4),SID56478859,0.715,1,0.0933,-0.136,inactive
STKLD1 (serine/threonine kinase like domain containing 1),SID152151495,-0.887,0.767,0.0993,-0.0219,inactive
AK7 (adenylate kinase 7),SID152153423,0.715,1,-0.0704,-0.109,inactive
RIPK1 (receptor interacting serine/threonine kinase 1),SID152148235,0.715,1,0.0352,-0.0402,inactive
DGKH (diacylglycerol kinase eta),SID134311961,0.715,1,0.0805,0.00171,inactive
MAP2K5 (mitogen-activated protein kinase kinase 5),SID135620764,0.715,1,-0.0286,-0.176,inactive
EPHA2 (EPH receptor A2),SID135620614,0.715,1,-0.00203,-0.101,inactive
RNASEL (ribonuclease L),SID56478962,0.447,0.961,0.0313,0.065,inactive
TAB1 (TGF-beta activated kinase 1 (MAP3K7) binding protein 1),SID135620883,0.23,0.93,-0.0562,-0.0636,inactive
MPP1 (MAGUK p55 scaffold protein 1),SID56479235,0.715,1,0.156,0.0981,inactive
TEC (tec protein tyrosine kinase),SID152148252,0.319,0.943,-0.0261,-0.0543,inactive
ROCK2 (Rho associated coiled-coil containing protein kinase 2),SID135620850,0.715,1,0.169,0.0749,inactive

Taken from above.
CDKL4 (cyclin dependent kinase like 4) [SID135624323], viability, knock-down alone (fraction of control) → 0.411
EEF2K (eukaryotic elongation factor 2 kinase) [SID152154873], robust z-score, knock-down alone = -0.586
Under “call”, PRKCG (protein kinase C gamma) [SID56478828] has inactive
TEC (tec protein tyrosine kinase) [SID152148252], call = inactive
DGKH (diacylglycerol kinase eta) [SID134311961], call: inactive
Entry of BMAL1 (basic helix-loop-helix ARNT like 1) [SID134314841] under “call”: inactive
